Measured values reported in US20220226280A1, “COMPOSITIONS AND METHODS FOR INCREASED GLUCOSE UPTAKE AND FAT METABOLISM” (Board of Supervisors of Louisiana State University and …, priority 2017, published 2022).
For at least one compound, name, drawing or mass did not settle the structure.

System: UCP1 mRNA
Assay: UCP1 mRNA induction in differentiated human adipocytes (Taqman RT-PCR)
Assay type: cell-based
Description: Gene expression was analyzed using Taqman RT-PCR and values are expressed as fold increase over untreated controls (n=5).
Gene expression was analyzed using Taqman RT-PCR and values are expressed as fold increase over untreated controls.
To determine the lowest concentrations with efficacy to induce UCP1 mRNA in human adipocytes over a 7 day time period, cells were treated with multiple concentrations of menthol combined with naringenin at 5 μM (FIG. 6).

## O=c1cc(N2CCOCC2)oc2c(-c3ccccc3)cccc12 [LY294002]
Inhibitor during 5 μM Naringenin treatment for 3 days
  Naringenin-stimulated UCP1 expression in presence of inhibitor: prevented Naringenin-stimulated UCP1 expression

## Oc1cc(O)c2cc(O)c(-c3ccc(O)c(O)c3)[o+]c2c1 [cyanidin]
Flavonoid 5 μM combined with 20 μM menthol, 7 day treatment
  UCP1 expression in comparison with flavonoid alone: No statistical difference
